Data: patent US20240199455A1, “REMOVAL OF TOXIC OXYANIONS BY CO-CRYSTALLIZATION WITH SULFATE” (UT-Battelle, LLC, priority 2022, published 2024)

Experiment: Recovery of BIG free base from crystalline BIG-oxyanion solid by NaOH
Settings: relative to the initial BIG-oxyanion precipitate; NaOH neutralization

SMILES | BIG free base recovered [%]
N=C(N)NN=Cc1cccc(C=NNC(=N)N)n1 [PyBIG free base] | 23.2±4.0
N=C(N)NN=Cc1ccc(C=NNC(=N)N)cc1 [BBIG free base] | 84.1±1.9
